Data published in patent US10280179B2, “Spiroquinoxaline derivatives as inhibitors of non-apoptotic regulated cell-death” (Helmholtz Zentrum Munchen—Deutches Forschungszentrum Fur …, priority 2013, dated 2019).

System: Pfa1 cells
Assay: Cellular toxicity, same assay as Example B.4 without TAM (Example B.5)
Format: cell-based, mouse
Conditions: TC50 divided by IC50 from Example B.4
Source text: Cellular Toxicity of Compounds of the Invention
An estimate of the toxicity for compounds of the invention was obtained by using the same assay as described in Example B.4, but without the addition of TAM. […] Such TC50 values obtained for certain compounds disclosed herein, together with an approximate therapeutic window (estimated by dividing each TC50 by the corresponding IC50 determined from example B.4) are shown in Table 3.

| Structure (SMILES) | Therapeutic Window (approx.. fold) |
| --- | --- |
| c1ccc(C(CNC2=Nc3ccccc3NC23CCOCC3)c2ccccc2)cc1 [O/S-352] | >50 fold |
| CC(CCc1ccccc1)NC1=Nc2ccccc2NC12CCOCC2 (stereo not shown) [O/S-353] | >50 fold |
| Clc1ccc(CNC2=Nc3ccccc3NC23CCOCC3)c(Cl)c1 [O/S-354] | >200 fold |
| Fc1ccc(CNC2=Nc3ccccc3NC23CCOCC3)c(F)c1 [O/S-355] | >20 fold |
| c1ccc(CCCNC2=Nc3ccccc3NC23CCSCC3)cc1 [O/S-356] | >20 fold |
| Cc1cc(C)cc(CNC2=Nc3ccccc3NC23CCSCC3)c1 [O/S-357] | >20 fold |
| c1ccc(CCCCNC2=Nc3ccccc3NC23CCOCC3)cc1 [O/S-358] | >5 fold |
| Fc1ccc(CNC2=Nc3ccccc3NC23CCSCC3)c(F)c1 [O/S-359] | >5 fold |
| O=S1(=O)CCC2(CC1)Nc1ccccc1N=C2NCc1ccccc1 [O/S-363] | >5 fold |
| FC1(F)Oc2cc3c(cc2O1)NC1(CCOCC1)C(NCc1ccccc1)=N3 [O/S-366] | >200 fold |
| CC(NC1=Nc2ccccc2NC12CCSCC2)c1ccccc1 (stereo not shown) [O/S-367] | >20 fold |
| c1ccc(CCNC2=Nc3ccccc3NC23CCSCC3)cc1 [O/S-368] | >10 fold |
| Cc1cc2c(cc1C)NC1(CCSCC1)C(NCc1ccccc1)=N2 [O/S-369] | >100 fold |
